This is an account of results in PMC6270530, “Structural Characterization of de Novo Designed L5K5W Model Peptide Isomers with Potent Antimicrobial and Varied Hemolytic Activities” (Molecules, 2013).

The test system of the series is human red blood cells. In kind it is cell-based. Particulars: TI' = MHC/GM; for TI' (pseudo-therapeutic index) (+, −): against all nine of the tested strains; for TI' (pseudo-therapeutic index) (−): against five Gram-negative strains tested; for TI' (pseudo-therapeutic index) (+): against four Gram-positive strains tested. As to the method:
The hemolytic assay was performed as described previously. In brief, suspensions of human red blood cells (10% v/v in PBS) were treated for 1 h with various concentrations (1–128 μg/mL, two-fold serial dilutions) of the peptides. The absorbance of the supernatant was then measured at 550 nm. The relative value to 100% hemolysis of human red blood cells treated with 0.2% Triton X-100 was defined as the percentage of hemolysis. The tests were performed using triplicate samples, and the average values of the three independent measurements were recorded. The minimal hemolytic concentration (MHC) value was determined as the lowest peptide concentration that produces more than 5% hemolysis.

No end group written: not given here.

For the substance KKLLKKLLKWL-NH2 [W10], the “TI' (pseudo-therapeutic index) (+, −)” value is given as 21.8; the “TI' (pseudo-therapeutic index) (−)” value was 18.4; the “TI' (pseudo-therapeutic index) (+)” value came out at 26.9.
As to KKLLKWLKKLL-NH2 [W6], the “TI' (pseudo-therapeutic index) (+, −)” value turned out to be 10.1; the “TI' (pseudo-therapeutic index) (−)” value turned out to be 9.2; the “TI' (pseudo-therapeutic index) (+)” value was found to be 11.3.
Take KLLKKLLKWLK-NH2 [W9]: the “TI' (pseudo-therapeutic index) (+, −)” value was determined as 27.4; the “TI' (pseudo-therapeutic index) (−)” value came out at 27.9; the “TI' (pseudo-therapeutic index) (+)” value turned out to be 26.9.
The matching figures for KLLKWLKKLLK-NH2 [W5]: 27.4, 24.3 and 32.0.
KWLKKLLKKLL-NH2 [W2]: the “TI' (pseudo-therapeutic index) (+, −)” value was found to be 6.9; the “TI' (pseudo-therapeutic index) (−)” value was 7.0; the “TI' (pseudo-therapeutic index) (+)” value is on record as 6.7.
For LKKLLKKLLKW-NH2 [W11], in that order: 43.5, 36.8 and 53.8.
For LKKLLKWLKKL-NH2 [W7], the “TI' (pseudo-therapeutic index) (+, −)” value was found to be 47.0; the “TI' (pseudo-therapeutic index) (−)” value turned out to be 42.2; the “TI' (pseudo-therapeutic index) (+)” value is reported as 53.8.
The matching figures for LKWLKKLLKKL-NH2 [W3]: 20.2, 18.4 and 22.6.
The matching figures for LLKKLLKWLKK-NH2 [W8]: 32.0, 27.9 and 38.1.
For the substance LLKWLKKLLKK-NH2 [W4], the “TI' (pseudo-therapeutic index) (+, −)” value worked out at 43.5; the “TI' (pseudo-therapeutic index) (−)” value was determined as 36.8; the “TI' (pseudo-therapeutic index) (+)” value amounted to 53.8.
Consider WLKKLLKKLLK-NH2 [W1], for which the “TI' (pseudo-therapeutic index) (+, −)” value is 11.8; the “TI' (pseudo-therapeutic index) (−)” value turned out to be 10.6; the “TI' (pseudo-therapeutic index) (+)” value was 13.5.
